The values that follow come from paper PMC11576107.

Results are given in words; binding and its absence hold for the method and conditions named. In cells and extracts the contact can be indirect. Binding can be weak; no strength is given. Sequences can lack the tags named with a protein.

Assay [1] addresses Flag-cMLC9 (chicken). Kind of assay: co-IP; Fzd1-10 knockout HEK293 cells, transfected; lysate; Western blot.
The target of assay [2] is Flag-cMLC9 (chicken). The experiment in a line: co-IP; MDCK cells transfected 24 h; lysis buffer 50 mM Tris pH 7.5, 150 mM NaCl, 1 mM EDTA, 0.5% NP40; IP with Flag M2, GFP or myc antibody and protein G sepharose, or Flag M2 beads; Western blot.

B1: myc-xDvl2 (protein, UniProt P51142 1-736)
chain: MAETKVIYHLDEEETPYLVKVPVPATDIRLRDFKAALGRGHAKYFFKAMDQDFGVVKEEISDDNAKLPCFNDRVVSWLASSEGSQPDSAPPAPATEVRPEPPPPVPPPIPPPPAERTSGIGDSRPPSFHPNVSGSTEQLDQDNESVISMRRDRVRRRESSEQAGVGRGVNGRTERHLSGYESSSTLLTSEIETSICDSEEDDTMSRFSSSTEQSSASRLLKRHRRRRKQRPPRLERTSSFSSVTDSTMSLNIITVTLNMEKYNFLGISIVGQSNERGDGGIYIGSIMKGGAVAADGRIEPGDMLLQVNDINFENMSNDDAVRVLRDIVHKPGPIVLTVAKCWDPSPQGYFTLPRNEPIHPIDPAAWVSHSAALSGSFPVYPGSASMSSMTSSTSVTETELSHALPPVSLFSLSVHTDLASVVKVMASPESGLEVRDRMWLKITIPNAFLGSDVVDWLYHHVEGFQDRREARKFASNLLKAGFIRHTVNKITFSEQCYYIFGDLTGCENYMTNLSLNDNDGSSGASDQDTLAPLPLPGASPWPLLPTFSYQYQAPHPYSTQPPAYHELSSYSYGMGSAGSQHSEGSRSSGSNRSDGGRGMQKDDRSGVAGVGGGDSKSGSGSESEYSTRSSIRRVGGGEAGPPSERSTSSRLPPHHPPSVHSYAAPGVPLSYNPMMLMMMPPPPLPPPGVCPPNSSVPPGAPPLVRDLASVPPELTATRQSFHMAMGNPSEFFVDVM
With B1, the binding entry with Flag-cMLC9 (chicken) [1] and with Flag-cMLC9 (chicken) [2] was “binds” in each case.
